Measurements: patent US8227421B2 (University of Miami, priority 2009, dated 2012)

Assays:
[1] = general procedure: Boc solid-phase peptide synthesis; Boc-Agm-SPA-MBHA; DIC; preformed HOBt esters for Boc-Asn-OH and Boc-Gln-OH; conditions: whole synthesis, scale 0.50 mmol
[2] = general procedure: Boc solid-phase peptide synthesis; MBHA (preferred for amidated C-terminus, Boc strategy); Merrifield or HMBA-MBHA for C-terminal ethylamide; DIC; preformed HOBt esters for Boc-Asn-OH and Boc-Gln-OH; conditions: whole synthesis, 220 and 280 nm
[3] = general procedure: Boc solid-phase peptide synthesis; MBHA; DIC; preformed HOBt esters for Boc-Asn-OH and Boc-Gln-OH; conditions: whole synthesis, scale 0.50 mmol
[4] = general procedure: Boc solid-phase peptide synthesis; Boc-Ada-Merrifield; DIC; preformed HOBt esters for Boc-Asn-OH and Boc-Gln-OH; conditions: whole synthesis, scale 0.50 mmol

Row | Substance | crude mass [1] [mg] | isolated mass [1] [mg] | final HPLC purity [2] [%] | crude mass [3] [mg] | isolated mass [3] [mg] | crude mass [4] [mg] | isolated mass [4] [mg]
1 | (PhF5Ac-Ada)^0-Tyr^1-D-Arg^2-Asp^3-Ala^4-Ile^5-Cpa^6-Thr^7-(Me-Ala)^8-Har^9-Fpa5^10-His^11-Orn^12-Val^13-Leu^14-His^15-Gln^16-Glu^17-Ser^18-Ala^19-His^20-Orn^21-Leu^22-Leu^23-Gln^24-Asp^25-Ile^26-Nle^27-D-Arg^28-Har^29-Agm^30 | 127 | 11.3 | >95 |  |  |  | 
2 | Ac-Ada^0-Tyr^1-D-Arg^2-Asp^3-Ala^4-Ile^5-Cpa^6-Thr^7-Ala^8-Har^9-Fpa5^10-His^11-Orn^12-Val^13-Leu^14-Abu^15-Gln^16-Leu^17-Ser^18-Ala^19-His^20-Orn^21-Leu^22-Leu^23-Gln^24-Asp^25-Ile^26-Nle^27-D-Arg^28-Har^29-NH2 |  |  | >95 | 167 | 19.8 |  | 
3 | PhAc^0-Tyr^1-D-Arg^2-Asp^3-Ala^4-Ile^5-Cpa^6-Thr^7-Ala^8-Har^9-Fpa5^10-His^11-Orn^12-Val^13-Leu^14-Abu^15-Gln^16-Leu^17-Ser^18-Ala^19-His^20-Orn^21-Leu^22-Leu^23-Gln^24-Asp^25-Ile^26-Nle^27-D-Arg^28-Har^29-Ada^30-NH2 |  |  | >95 | 132 | 10.2 |  | 
4 | [(PhAc-Ada)^0-Tyr^1, D-Arg^2, Cpa^6, (Me-Ala)^8, Har^9, Fpa5^10, His^11, Orn^12, His^15, Glu^17, His^20, Orn^21, Nle^27, D-Arg^28, Har^29, Ada^30]hGH-RH(1-30)OH |  |  | >95 |  |  | 107 | 11.3

For part of these data: The same purity stands for every peptide and may come from a single statement.
